These results are taken from paper PMC5216374.

Protein sequences, listed by entry. Tags and fused reporters are not part of them. Lines headed by an entry give the natural chain unless they say otherwise; changes in a name come on top. Chains listed by the source or under a name are the forms on record and can include a tag or linker.
UniProt P07814: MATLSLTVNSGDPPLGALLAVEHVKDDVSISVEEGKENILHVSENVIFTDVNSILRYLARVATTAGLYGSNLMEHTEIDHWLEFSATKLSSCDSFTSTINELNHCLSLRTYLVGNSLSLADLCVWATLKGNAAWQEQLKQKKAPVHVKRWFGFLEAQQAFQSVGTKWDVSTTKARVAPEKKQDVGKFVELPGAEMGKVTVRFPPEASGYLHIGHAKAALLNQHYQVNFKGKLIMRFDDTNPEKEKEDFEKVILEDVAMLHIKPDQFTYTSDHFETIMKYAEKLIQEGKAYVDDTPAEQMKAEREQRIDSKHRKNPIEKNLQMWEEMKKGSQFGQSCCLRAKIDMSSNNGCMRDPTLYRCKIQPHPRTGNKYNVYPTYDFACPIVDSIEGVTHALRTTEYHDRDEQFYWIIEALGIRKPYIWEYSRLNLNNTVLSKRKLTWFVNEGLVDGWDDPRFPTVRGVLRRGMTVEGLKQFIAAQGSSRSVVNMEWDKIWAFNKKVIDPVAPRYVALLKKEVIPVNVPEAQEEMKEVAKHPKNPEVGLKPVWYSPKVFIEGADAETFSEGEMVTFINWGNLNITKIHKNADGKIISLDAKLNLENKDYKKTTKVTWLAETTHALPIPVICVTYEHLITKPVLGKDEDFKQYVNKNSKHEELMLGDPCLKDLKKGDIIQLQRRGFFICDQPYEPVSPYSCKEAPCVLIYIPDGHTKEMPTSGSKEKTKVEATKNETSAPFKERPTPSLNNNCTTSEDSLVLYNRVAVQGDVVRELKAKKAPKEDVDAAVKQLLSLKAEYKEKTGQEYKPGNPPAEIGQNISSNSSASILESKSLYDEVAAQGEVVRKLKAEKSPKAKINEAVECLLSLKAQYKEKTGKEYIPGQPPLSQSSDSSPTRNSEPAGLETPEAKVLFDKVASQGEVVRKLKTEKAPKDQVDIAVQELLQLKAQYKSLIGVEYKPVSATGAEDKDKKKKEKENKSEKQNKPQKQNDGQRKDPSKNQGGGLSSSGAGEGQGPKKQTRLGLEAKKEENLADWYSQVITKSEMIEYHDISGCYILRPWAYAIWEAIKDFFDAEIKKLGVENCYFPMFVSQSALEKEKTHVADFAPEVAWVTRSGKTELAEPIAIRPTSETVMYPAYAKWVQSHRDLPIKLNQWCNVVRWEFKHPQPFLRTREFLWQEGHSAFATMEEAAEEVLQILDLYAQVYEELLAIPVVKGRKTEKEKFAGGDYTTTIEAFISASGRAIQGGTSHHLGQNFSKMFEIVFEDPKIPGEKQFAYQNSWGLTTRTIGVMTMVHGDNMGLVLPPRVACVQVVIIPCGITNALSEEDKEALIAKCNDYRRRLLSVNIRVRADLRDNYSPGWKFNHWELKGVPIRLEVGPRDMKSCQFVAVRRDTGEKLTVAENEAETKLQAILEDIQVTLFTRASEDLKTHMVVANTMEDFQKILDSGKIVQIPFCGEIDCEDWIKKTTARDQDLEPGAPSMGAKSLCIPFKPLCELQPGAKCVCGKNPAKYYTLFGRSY
UniProt Q16531: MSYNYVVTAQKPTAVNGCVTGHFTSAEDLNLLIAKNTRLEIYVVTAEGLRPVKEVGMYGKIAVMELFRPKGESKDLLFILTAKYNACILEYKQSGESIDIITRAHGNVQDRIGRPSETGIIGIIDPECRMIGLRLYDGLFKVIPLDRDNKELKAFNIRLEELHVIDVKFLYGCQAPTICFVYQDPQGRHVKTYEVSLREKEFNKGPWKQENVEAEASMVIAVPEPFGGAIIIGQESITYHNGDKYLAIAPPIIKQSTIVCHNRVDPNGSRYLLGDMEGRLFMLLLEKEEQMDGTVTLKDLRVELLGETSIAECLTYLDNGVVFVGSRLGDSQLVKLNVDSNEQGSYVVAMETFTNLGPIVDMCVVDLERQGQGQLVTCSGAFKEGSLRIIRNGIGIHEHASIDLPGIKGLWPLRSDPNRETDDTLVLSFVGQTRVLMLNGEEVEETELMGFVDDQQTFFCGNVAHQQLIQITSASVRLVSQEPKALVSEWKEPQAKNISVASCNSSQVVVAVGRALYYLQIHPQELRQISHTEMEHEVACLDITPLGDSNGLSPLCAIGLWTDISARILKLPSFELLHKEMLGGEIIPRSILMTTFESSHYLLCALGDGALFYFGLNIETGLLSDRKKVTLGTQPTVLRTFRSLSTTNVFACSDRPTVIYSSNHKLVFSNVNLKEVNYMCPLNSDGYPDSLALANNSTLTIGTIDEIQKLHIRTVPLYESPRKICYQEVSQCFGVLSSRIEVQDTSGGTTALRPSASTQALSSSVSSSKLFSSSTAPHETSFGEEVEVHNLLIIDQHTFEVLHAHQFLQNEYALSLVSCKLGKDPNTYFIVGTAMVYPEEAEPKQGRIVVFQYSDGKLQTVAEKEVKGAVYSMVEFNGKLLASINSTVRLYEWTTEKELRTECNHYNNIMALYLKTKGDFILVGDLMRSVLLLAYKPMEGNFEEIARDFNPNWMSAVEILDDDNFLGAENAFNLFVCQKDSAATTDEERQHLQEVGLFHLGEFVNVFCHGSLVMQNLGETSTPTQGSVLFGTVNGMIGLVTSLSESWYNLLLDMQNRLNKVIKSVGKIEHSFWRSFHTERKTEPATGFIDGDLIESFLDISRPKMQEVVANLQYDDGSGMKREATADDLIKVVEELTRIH
UniProt P25685: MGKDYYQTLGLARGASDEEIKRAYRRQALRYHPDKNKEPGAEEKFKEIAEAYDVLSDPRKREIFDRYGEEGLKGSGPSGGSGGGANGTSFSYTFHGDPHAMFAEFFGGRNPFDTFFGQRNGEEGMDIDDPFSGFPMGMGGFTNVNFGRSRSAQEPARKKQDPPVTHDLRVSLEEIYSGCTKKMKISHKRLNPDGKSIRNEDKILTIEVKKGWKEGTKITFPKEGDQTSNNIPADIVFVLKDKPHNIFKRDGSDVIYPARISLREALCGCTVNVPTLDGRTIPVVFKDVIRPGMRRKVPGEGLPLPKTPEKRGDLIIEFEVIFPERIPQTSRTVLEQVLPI
UniProt Q6AI08: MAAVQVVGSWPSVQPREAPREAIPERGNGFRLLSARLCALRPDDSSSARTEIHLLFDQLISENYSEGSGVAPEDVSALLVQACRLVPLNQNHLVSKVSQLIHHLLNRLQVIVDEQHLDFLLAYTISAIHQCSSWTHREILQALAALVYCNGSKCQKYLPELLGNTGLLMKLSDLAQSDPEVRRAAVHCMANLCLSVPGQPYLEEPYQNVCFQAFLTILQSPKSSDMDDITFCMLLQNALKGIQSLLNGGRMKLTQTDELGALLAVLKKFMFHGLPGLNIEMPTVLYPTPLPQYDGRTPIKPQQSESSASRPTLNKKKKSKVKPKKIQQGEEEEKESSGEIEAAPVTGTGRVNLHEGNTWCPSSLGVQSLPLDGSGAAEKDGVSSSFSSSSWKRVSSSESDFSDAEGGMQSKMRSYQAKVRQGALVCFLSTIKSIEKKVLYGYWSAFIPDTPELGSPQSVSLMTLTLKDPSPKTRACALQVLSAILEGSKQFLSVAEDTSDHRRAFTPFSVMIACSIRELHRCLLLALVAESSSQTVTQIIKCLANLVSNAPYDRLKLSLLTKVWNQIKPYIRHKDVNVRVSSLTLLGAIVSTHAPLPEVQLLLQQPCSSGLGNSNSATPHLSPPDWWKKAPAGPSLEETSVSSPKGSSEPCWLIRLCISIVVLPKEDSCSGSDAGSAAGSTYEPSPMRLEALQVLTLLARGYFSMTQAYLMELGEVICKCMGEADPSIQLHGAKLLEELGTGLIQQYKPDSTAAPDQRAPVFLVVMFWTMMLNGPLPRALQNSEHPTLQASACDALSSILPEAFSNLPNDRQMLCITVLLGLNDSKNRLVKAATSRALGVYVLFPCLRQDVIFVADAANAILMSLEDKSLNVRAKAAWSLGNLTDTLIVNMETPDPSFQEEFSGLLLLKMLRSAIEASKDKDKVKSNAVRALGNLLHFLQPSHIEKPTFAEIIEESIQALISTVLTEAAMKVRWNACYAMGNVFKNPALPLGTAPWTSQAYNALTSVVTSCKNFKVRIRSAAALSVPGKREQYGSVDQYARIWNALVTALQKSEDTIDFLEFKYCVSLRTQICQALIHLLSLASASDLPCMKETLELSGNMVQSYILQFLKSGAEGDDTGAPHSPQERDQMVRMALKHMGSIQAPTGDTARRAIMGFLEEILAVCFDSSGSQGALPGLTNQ
Isoform 2 of HCLS1-associated protein X-1 (O00165-2, form named): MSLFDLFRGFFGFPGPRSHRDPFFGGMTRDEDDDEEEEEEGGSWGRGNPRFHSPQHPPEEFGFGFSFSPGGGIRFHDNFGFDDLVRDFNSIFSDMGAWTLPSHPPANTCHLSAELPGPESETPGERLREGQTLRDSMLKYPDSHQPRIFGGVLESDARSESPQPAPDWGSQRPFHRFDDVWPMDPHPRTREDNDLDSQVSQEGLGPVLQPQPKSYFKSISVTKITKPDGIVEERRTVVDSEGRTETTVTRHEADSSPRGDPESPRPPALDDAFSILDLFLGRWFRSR
UniProt Q6P582: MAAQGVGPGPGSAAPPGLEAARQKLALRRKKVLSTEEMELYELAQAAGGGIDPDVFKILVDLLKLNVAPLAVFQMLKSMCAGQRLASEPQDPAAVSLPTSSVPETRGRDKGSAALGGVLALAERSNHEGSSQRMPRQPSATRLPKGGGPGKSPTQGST
UniProt O14737: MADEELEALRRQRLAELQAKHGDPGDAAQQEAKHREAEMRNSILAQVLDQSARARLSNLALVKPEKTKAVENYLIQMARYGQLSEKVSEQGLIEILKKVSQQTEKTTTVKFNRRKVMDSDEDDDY
UniProt Q14671: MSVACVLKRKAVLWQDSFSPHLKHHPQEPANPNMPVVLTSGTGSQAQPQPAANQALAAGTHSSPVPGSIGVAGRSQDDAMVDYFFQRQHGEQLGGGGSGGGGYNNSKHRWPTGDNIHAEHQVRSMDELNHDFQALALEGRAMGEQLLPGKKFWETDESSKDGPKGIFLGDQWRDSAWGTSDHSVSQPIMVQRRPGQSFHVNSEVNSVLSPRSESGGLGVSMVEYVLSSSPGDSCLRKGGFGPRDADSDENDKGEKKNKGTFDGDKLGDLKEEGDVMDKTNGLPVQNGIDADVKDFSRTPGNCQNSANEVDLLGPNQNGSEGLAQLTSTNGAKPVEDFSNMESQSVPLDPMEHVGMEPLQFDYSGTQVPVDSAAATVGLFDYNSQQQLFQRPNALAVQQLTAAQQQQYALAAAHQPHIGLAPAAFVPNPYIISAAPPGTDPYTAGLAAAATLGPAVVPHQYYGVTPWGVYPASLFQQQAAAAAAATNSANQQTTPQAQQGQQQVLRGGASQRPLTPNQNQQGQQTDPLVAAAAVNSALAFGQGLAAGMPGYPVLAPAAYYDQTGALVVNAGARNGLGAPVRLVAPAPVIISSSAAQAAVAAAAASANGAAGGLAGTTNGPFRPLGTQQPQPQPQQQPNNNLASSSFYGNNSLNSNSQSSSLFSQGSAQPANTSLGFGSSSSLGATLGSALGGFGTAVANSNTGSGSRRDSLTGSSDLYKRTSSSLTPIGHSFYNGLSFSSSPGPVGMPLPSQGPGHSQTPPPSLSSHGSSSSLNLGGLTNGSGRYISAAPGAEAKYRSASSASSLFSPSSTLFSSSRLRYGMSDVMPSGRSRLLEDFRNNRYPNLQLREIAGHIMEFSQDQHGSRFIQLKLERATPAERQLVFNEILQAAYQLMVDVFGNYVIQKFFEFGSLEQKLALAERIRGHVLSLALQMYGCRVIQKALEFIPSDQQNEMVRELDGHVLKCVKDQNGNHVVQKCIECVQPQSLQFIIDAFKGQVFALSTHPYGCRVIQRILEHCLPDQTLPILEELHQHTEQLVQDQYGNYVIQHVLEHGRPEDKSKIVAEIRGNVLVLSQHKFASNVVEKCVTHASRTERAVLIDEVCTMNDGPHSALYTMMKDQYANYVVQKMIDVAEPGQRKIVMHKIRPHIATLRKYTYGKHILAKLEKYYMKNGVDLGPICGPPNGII
UniProt P63208: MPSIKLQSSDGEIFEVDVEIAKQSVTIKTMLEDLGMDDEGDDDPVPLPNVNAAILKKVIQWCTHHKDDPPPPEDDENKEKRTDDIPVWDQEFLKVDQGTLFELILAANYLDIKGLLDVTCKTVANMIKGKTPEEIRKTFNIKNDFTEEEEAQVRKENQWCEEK
UniProt Q3ZCM7: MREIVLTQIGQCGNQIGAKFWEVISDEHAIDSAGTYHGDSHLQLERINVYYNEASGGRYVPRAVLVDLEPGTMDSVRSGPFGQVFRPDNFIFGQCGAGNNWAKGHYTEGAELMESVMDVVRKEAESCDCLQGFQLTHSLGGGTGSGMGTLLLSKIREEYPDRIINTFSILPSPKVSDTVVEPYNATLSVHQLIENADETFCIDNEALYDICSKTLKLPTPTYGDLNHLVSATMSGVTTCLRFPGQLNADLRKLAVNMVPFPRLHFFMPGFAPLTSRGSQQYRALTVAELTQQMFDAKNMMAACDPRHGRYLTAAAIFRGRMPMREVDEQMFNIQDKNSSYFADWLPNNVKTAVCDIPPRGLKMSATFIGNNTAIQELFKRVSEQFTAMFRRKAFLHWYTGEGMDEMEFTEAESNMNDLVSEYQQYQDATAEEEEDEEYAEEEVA

In the test the target is T1, full length TRIM14 ORF tagged at the C-terminus with 3xFLAG (human) (UniProt Q14142).
T1 sequence: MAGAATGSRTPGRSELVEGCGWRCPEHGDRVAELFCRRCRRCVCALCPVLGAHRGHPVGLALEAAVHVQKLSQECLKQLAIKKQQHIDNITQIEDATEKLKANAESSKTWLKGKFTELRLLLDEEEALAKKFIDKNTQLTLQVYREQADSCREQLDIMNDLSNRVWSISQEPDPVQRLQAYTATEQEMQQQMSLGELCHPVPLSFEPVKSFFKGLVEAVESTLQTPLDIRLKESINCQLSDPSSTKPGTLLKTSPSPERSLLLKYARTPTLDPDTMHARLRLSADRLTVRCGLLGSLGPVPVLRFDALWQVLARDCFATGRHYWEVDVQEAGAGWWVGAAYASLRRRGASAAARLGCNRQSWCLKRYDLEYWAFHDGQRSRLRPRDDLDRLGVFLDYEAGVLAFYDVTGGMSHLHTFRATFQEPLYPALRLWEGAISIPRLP
Briefly: affinity purification with mass spectrometry; anti-FLAG affinity gel IP of C-terminally 3xFLAG-tagged TRIM14 from HEK293T lysate 48 h after transfection, overnight at 4 °C; eluted with 0.15% TFA, trypsin, LC-MS/MS; proteins also found with empty FLAG vector excluded; hits seen in at least 2 of 3 biological experiments.

No constants are given. Whether binding was seen depends on the method and setting. Binding seen in cells or lysates may run through a third protein. These calls come from enrichment with a bait or labelling near it, and not all partners need be listed. Tags and fused reporters may be left off the sequences shown.

“26S proteasome non-ATPase regulatory subunit 4 (from UniProt P55036 1-377)”: the binding entry was “binds”. Regarding “26S proteasome non-ATPase regulatory subunit 6 f (from UniProt Q15008 1-389)”, the binding result is given as “binds”. Then “Acidic leucine-rich nuclear phosphoprotein 32 family member A (from UniProt P39687 1-249)”, with “binds”. Turning to “Apoptosis-inducing factor 1, mitochondrial (from UniProt O95831)”, the binding entry is on record as “binds”. Then “BAG family molecular chaperone regulator 2 (from UniProt O95816 1-211)”, with “binds”; and “Bifunctional glutamate/proline--tRNA ligase (from UniProt P07814 1-1512)”, with “binds”. As for “CAD protein (from UniProt P27708 1-2225)”, the binding result is recorded as “binds”. Then “DNA damage-binding protein 1 (from UniProt Q16531 1-1140)”, with “binds”; and “DNA-dependent protein kinase catalytic subunit (from UniProt P78527 1-4128)”, with “binds”. As for “DnaJ homolog subfamily A member 2 (from UniProt O60884 1-412)”, the binding entry is reported as “binds”. Then “DnaJ homolog subfamily B member 1 (from UniProt P25685 1-340)”, with “binds”; and “E3 ubiquitin-protein ligase CHIP (from UniProt Q9UNE7 1-303)”, with “binds”. Then “E3 ubiquitin-protein ligase UBR5 (from UniProt O95071 1-2799)”, with “binds”; and “Golgi-specific brefeldin A-resistance guanine nucleotide exchange factor 1 (from UniProt Q92538 1-1860)”, with “binds”. Then “HEAT repeat-containing protein 6 (from UniProt Q6AI08 1-1181)”, with “binds”; and “Heat shock 70 kDa protein 4L (from UniProt O95757 1-839)”, with “binds”; and “Interleukin-1 receptor-associated kinase 1 (from UniProt P51617 1-712)”, with “binds”. For the molecule “Isoform 1 of Fanconi anemia group I protein (from UniProt Q9NVI1-1 1-1268)”, the binding entry is recorded as “binds”. “Isoform 2 of A-kinase anchor protein 12 (from UniProt Q02952-2 1-1684)”: the binding result is reported as “binds”.

As to “Isoform 2 of E3 ubiquitin-protein ligase HUWEI (from UniProt Q7Z6Z7-2 1-4358)”, the binding entry is reported as “binds”. Consider “Isoform 2 of HCLS1-associated protein X-1 (from UniProt O00165-2 1-287)”, for which the binding result is “binds”. Then “Isoform 2 of RING finger protein 126 (human (endogenous in HEK293T))”, with “binds”; and “Isoform 5 of Protein transport protein (from UniProt O15027-5 1-2379)”, with “binds”.

In the case of “Isoform long of proteasome subunit alpha type-1 (from UniProt P25786-2 1-269)”, the binding result is listed as “binds”. Then “La Ribonucleoprotein Domain Family Member 4B (from UniProt Q92615 1-738)”, with “binds”; and “Mitotic-spindle organizing protein 2A (from UniProt Q6P582 1-158)”, with “binds”. Then “Prefoldin subunit 2 (from UniProt Q9UHV9 1-154)”, with “binds”. Consider “Programmed cell death protein 5 (from UniProt O14737 1-125)”, for which the binding result was “binds”. In the case of “Proteasomal ubiquitin receptor ADRM1 (from UniProt Q16186 1-407)”, the binding result is on record as “binds”. Then “Proteasome 26S Subunit, ATPase 6 (from UniProt P62333 1-389)”, with “binds”.

As to “Proteasome activator complex subunit 3 (from UniProt P61289 1-254)”, the binding result is “binds”.

For “Proteasome subunit alpha type-2 (from UniProt P25787 1-234)”, the binding entry was “binds”. Then “Proteasome subunit alpha type-7 (from UniProt O14818 1-248)”, with “binds”; and “Pumilio homolog 1 (from UniProt Q14671 1-1186)”, with “binds”; and “S-phase kinase-associated protein 1 (from UniProt P63208 1-163)”, with “binds”. Then “Sequestosome-1 p62 (from UniProt Q13501 1-440)”, with “binds”; and “Structural maintenance of chromosomes protein 2 (from UniProt O95347 1-1197)”, with “binds”. On to “Structural maintenance of chromosomes protein (from UniProt Q9NTJ3 1-1288)”, for which the binding entry is recorded as “binds”. Then “Translational activator GCN1 (from UniProt Q92616 1-2671)”, with “binds”; and “Tubulin alpha-1C chain (from UniProt Q9BQE3 1-449)”, with “binds”.

Take “Tubulin beta-2A chain (from UniProt Q13885 1-445)”: the binding result was “binds”. Then “Tubulin beta-4A chain (from UniProt P04350 1-444)”, with “binds”. On to “Tubulin beta-6 chain (from UniProt Q9BUF5 1-446)”, for which the binding result is on record as “binds”.

For “Tubulin beta-8 chain (from UniProt Q3ZCM7 1-444)”, the binding entry is recorded as “binds”.

B1: E3 ubiquitin-protein ligase Praja-1 (protein, UniProt Q8NG27 1-643)
chain: MGQESSKPVWPNPTGGYQSNTGRRYGRRHAYVSFRPPTSQRERIASQRKTNSEVPMHRSAPSQTTKRSRSPFSTTRRSWDDSESSGTNLNIDNEDYSRYPPREYRASGSRRGMAYGHIDSYGADDSEEEGAGPVERPPVRGKTGKFKDDKLYDPEKGARSLAGPPPHFSSFSRDVREERDKLDPVPAARCSASRADFLPQSSVASQSSSEGKLATKGDSSERERREQNLPARPSRAPVSICGGGENTSKSAEEPVVRPKIRNLASPNCVKPKIFFDTDDDDDMPHSTSRWRDTANDNEGHSDGLARRGRGESSSGYPEPKYPEDKREARSDQVKPEKVPRRRRTMADPDFWTHSDDYYKYCDEDSDSDKEWIAALRRKYRSREQTLSSSGESWETLPGKEEREPPQAKVSASTGTSPGPGASASAGAGAGASAGSNGSNYLEEVREPSLQEEQASLEEGEIPWLQYHENDSSSEGDNDSGHELMQPGVFMLDGNNNLEDDSSVSEDLEVDWSLFDGFADGLGVAEAISYVDPQFLTYMALEERLAQAMETALAHLESLAVDVEVANPPASKESIDALPEILVTEDHGAVGQEMCCPICCSEYVKGEVATELPCHHYFHKPCVSIWLQKSGTCPVCRCMFPPPL
Take B1: the binding result was “binds”.

B2: Serine/threonine-protein phosphatase 6 regulatory subunit 1 (protein, UniProt Q9UPN7 1-881)
chain: MFWKFDLHTSSHLDTLLEREDLSLPELLDEEDVLQECKVVNRKLLDFLLQPPHLQAMVAWVTQEPPDSGEERLRYKYPSVACEILTSDVPQINDALGADESLLNRLYGFLQSTGSLNPLLASFFSKVMGILINRKTDQLVSFLRKKDDFVDLLLQHIGTSAIMDLLLRLLTCVERPQLRQDVVNWLNEEKIVQRLIEQIHPSKDENQHSNASQSLCDIIRLSREQMIQVQDSPEPDQLLATLEKQETIEQLLSNMFEGEQSQSVIVSGIQVLLTLLEPRRPRSESVTVNSFFSSVDGQLELLAQGALESTVSSVGALHALRPRLSCFHQLLLEPPKLEPLQMTWGMLAPPLGNTRLHVVKLLASALSANDAALTHELLALDVPNTMLDLFFHYVFNNFLHAQVEGCVSTMLSLGPPPDSSPETPIQNPVVKHLLQQCRLVERILTSWEENDRVQCAGGPRKGYMGHLTRVAGALVQNTEKGPNAEQLRQLLKELPSEQQEQWEAFVSGPLAETNKKNMVDLVNTHHLHSSSDDEDDRLKEFNFPEEAVLQQAFMDFQMQRMTSAFIDHFGFNDEEFGEQEESVNAPFDKTANITFSLNADDENPNANLLEICYKDRIQQFDDDEEEEDEEEAQGSGESDGEDGAWQGSQLARGARLGQPPGVRSGGSTDSEDEEEEDEEEEEDEEGIGCAARGGATPLSYPSPGPQPPGPSWTATFDPVPTDAPTSPRVSGEEELHTGPPAPQGPLSVPQGLPTQSLASPPARDALQLRSQDPTPPSAPQEATEGSKVTEPSAPCQALVSIGDLQATFHGIRSAPSSSDSATRDPSTSVPASGAHQPPQTTEGEKSPEPLGLPQSQSAQALTPPPIPNGSAPEGPASPGSQ
Take B2: the binding result was “binds”.
